Source: patent US20180148492A1 (CHILDREN S HOSPITAL MEDICAL CENTER, published 2018)
No constants are given. Whether binding was seen depends on the method and setting. Binding seen in cells or lysates may run through a third protein. Some entries that bind do so weakly or less than the wild type. Where a sequence is shown, tags or fusion partners need not be part of it.

Target: T1, HA-tagged CDH26 (human) (UniProt Q8IXH8)
T1 sequence: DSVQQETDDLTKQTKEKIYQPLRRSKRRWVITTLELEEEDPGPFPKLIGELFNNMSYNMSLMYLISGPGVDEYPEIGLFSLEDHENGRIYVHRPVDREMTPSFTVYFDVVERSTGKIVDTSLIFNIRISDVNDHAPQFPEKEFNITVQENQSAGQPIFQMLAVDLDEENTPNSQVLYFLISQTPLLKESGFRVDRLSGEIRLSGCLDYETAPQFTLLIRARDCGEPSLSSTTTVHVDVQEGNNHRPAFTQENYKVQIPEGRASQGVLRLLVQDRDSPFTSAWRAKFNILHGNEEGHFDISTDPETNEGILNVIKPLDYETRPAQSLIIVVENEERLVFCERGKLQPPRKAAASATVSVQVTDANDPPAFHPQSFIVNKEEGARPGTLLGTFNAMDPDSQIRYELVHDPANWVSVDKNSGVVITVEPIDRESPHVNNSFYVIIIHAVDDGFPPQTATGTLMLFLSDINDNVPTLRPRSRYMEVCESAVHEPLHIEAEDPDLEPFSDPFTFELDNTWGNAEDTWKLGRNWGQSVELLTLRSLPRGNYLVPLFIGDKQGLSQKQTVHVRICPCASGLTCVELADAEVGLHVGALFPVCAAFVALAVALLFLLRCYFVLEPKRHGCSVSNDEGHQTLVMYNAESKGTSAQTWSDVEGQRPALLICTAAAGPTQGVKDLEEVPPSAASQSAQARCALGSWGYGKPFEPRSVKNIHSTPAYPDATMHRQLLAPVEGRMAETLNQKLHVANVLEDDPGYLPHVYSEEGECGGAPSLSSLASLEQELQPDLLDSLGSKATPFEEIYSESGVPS
Test: co-immunoprecipitation from co-transfected HEK 293T cells, western blot

B1: Myc-tagged CDH26 (receptor, not shown: small tags and cut ends)
chain: DSVQQETDDLTKQTKEKIYQPLRRSKRRWVITTLELEEEDPGPFPKLIGELFNNMSYNMSLMYLISGPGVDEYPEIGLFSLEDHENGRIYVHRPVDREMTPSFTVYFDVVERSTGKIVDTSLIFNIRISDVNDHAPQFPEKEFNITVQENQSAGQPIFQMLAVDLDEENTPNSQVLYFLISQTPLLKESGFRVDRLSGEIRLSGCLDYETAPQFTLLIRARDCGEPSLSSTTTVHVDVQEGNNHRPAFTQENYKVQIPEGRASQGVLRLLVQDRDSPFTSAWRAKFNILHGNEEGHFDISTDPETNEGILNVIKPLDYETRPAQSLIIVVENEERLVFCERGKLQPPRKAAASATVSVQVTDANDPPAFHPQSFIVNKEEGARPGTLLGTFNAMDPDSQIRYELVHDPANWVSVDKNSGVVITVEPIDRESPHVNNSFYVIIIHAVDDGFPPQTATGTLMLFLSDINDNVPTLRPRSRYMEVCESAVHEPLHIEAEDPDLEPFSDPFTFELDNTWGNAEDTWKLGRNWGQSVELLTLRSLPRGNYLVPLFIGDKQGLSQKQTVHVRICPCASGLTCVELADAEVGLHVGALFPVCAAFVALAVALLFLLRCYFVLEPKRHGCSVSNDEGHQTLVMYNAESKGTSAQTWSDVEGQRPALLICTAAAGPTQGVKDLEEVPPSAASQSAQARCALGSWGYGKPFEPRSVKNIHSTPAYPDATMHRQLLAPVEGRMAETLNQKLHVANVLEDDPGYLPHVYSEEGECGGAPSLSSLASLEQELQPDLLDSLGSKATPFEEIYSESGVPS
Question: Which binding does the source give for B1 here?
Answer: binds
